# Source: publication doi:10.1101/2023.02.03.527076
# Chains of the proteins cited; added tags and fusions are not shown.
# UniProt Q9LK09: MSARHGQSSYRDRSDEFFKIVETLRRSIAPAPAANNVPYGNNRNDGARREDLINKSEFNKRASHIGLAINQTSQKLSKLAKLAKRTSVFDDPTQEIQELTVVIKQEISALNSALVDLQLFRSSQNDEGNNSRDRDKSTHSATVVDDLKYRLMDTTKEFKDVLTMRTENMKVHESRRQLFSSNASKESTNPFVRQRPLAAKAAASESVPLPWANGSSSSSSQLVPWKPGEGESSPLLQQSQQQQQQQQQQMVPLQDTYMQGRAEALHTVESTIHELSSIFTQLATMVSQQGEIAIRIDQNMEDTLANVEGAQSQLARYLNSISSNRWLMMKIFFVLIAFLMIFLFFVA
# UniProt Q94CG2: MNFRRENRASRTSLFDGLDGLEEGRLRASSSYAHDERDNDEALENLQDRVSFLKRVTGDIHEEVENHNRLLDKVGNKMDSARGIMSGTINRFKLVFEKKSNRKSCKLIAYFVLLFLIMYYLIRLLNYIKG
# UniProt Q9CA75: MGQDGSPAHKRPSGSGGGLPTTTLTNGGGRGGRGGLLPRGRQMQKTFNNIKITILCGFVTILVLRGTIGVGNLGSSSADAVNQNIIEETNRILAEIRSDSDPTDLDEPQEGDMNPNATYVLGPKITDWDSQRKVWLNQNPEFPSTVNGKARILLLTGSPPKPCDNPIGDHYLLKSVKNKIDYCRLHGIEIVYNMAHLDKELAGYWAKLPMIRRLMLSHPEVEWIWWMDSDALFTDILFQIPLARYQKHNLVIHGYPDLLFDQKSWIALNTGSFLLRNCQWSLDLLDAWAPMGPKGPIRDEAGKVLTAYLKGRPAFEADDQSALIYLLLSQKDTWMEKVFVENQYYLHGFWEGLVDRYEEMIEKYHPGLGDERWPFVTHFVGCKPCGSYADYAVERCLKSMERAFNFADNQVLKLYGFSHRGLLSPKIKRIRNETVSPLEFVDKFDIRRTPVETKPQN
# No constants are given. Whether binding was seen depends on the method and setting. Binding seen in cells or lysates may run through a third protein. Some results given as binding are weak or reduced against the parent protein; the word gives no strength. Sequences can lack the tags named with a protein.
# Molecular target: AtSYP32 (BiFC fusion) (Arabidopsis thaliana) (UniProt Q9LK09)
# Assay: split reporter
row,Molecule,binding
1,BET12 (BiFC fusion) (from UniProt Q94CG2 1-130),binds
2,XXT5 (BiFC fusion) (from UniProt Q9CA75 1-457) (enzyme),binds
3,"SEC22 (BiFC fusion) (protein, UniProt Q94AU2 1-218) MVKMTLIARVTDGLPLAEGLDDGRDLPDSDMYKQQVKALFKNLSRGQNDASRMSVETGPYVFHYIIEGRVCYLTMCDRSYPKKLAFQYLEDLKNEFERVNGPNIETAARPYAFIKFDTFIQKTKKLYQDTRTQRNIAKLNDELYEVHQIMTRNVQEVLGVGEKLDQVSEMSSRLTSESRIYADKAKDLNRQALIRKWAPVAIVFGVVFLLFWVKNKLW",binds
4,"SEC31B (BiFC fusion) (protein, UniProt Q8L611 1-1104) MACIKGVGRSASVALAPDAPYMAAGTMAGAVDLSFSSSANLEIFKLDFQSDDRDLPLVGEIPSSERFNRLAWGRNGSGSEEFALGLIAGGLVDGNIDLWNPLSLIGSQPSENALVGHLSVHKGPVRGLEFNAISSNLLASGADDGEICIWDLLKPSEPSHFPLLKGSGSATQGEISFISWNRKVQQILASTSYNGTTVIWDLRKQKPIINFADSVRRRCSVLQWNPNVTTQIMVASDDDSSPTLKLWDMRNIMSPVREFTGHQRGVIAMEWCPSDSSYLLTCAKDNRTICWDTNTAEIVAELPAGNNWNFDVHWYPKIPGVISASSFDGKIGIYNIEGCSRYGVEENNFGTAPLKAPKWYKRPVGASFGFGGKLVSCHARAPAKGTSSILSEVFLHSLVTEQSLVSRTSEFEAAIENGDMTSLRGLCEKKSEETESEEEKETWGLLKIMFEEEGTSRTKLISHLGFTLPVAEKDQAVDGLSSDLNGIRLEDTAADALDLDDSNEAAAFAMDNGEDFFNNFPAKPDTPVSTSAKDFMPSDTDFSTKGEETQEMQEEEEESSDPVFDNAIQRALIVGDYKEAVDQCITANKMADALVIAHVGGTALWESTREKYLKTSSAPYMKVVSAMVNNDLRSLIYTRSHKFWKETLALLCTFAQGEQWTTLCDALASKLMAAGNTLAAVLCYICAGNVDRTVEIWSRSLANERDGRSYAELLQDLMEKTLVLALATGNKKFSASLCKLFESYAEILASQGLLTTAMKYLKVLDSGGLSPELSILRDRISLSAEPETNTTASGNTQPQSTMPYNQEPTQAQPNVLANPYDNQYQQPYTDSYYVPQVSHPPMQQPTMFMPHQAQPAPQPSFTPAPTSNAQPSMRTTFVPSTPPALKNADQYQQPTMSSHSFTGPSNNAYPVPPGPGQYAPSGPSQLGQYPNPKMPQVVAPAAGPIGFTPMATPGVAPRSVQPASPPTQQAAAQAAPAPATPPPTVQTADTSNVPAHQKPVIATLTRLFNETSEALGGARANTTKKREIEDNSRKLGALFVKLNSGDISKNAADKLAQLCQALDNNDFSTALQIQVLLTTSEWDECNFWLATLKRMMVKARQNVR",binds

# Molecular target: LUC^N-AtSYP32 (Arabidopsis thaliana) (UniProt Q9LK09)
# Assay: split reporter
row,Molecule,binding
1,"LUC^C-SEC22 (protein, UniProt Q94AU2 1-218) MVKMTLIARVTDGLPLAEGLDDGRDLPDSDMYKQQVKALFKNLSRGQNDASRMSVETGPYVFHYIIEGRVCYLTMCDRSYPKKLAFQYLEDLKNEFERVNGPNIETAARPYAFIKFDTFIQKTKKLYQDTRTQRNIAKLNDELYEVHQIMTRNVQEVLGVGEKLDQVSEMSSRLTSESRIYADKAKDLNRQALIRKWAPVAIVFGVVFLLFWVKNKLW",binds
2,"LUC^C-SEC31B (protein, UniProt Q8L611 1-1104) MACIKGVGRSASVALAPDAPYMAAGTMAGAVDLSFSSSANLEIFKLDFQSDDRDLPLVGEIPSSERFNRLAWGRNGSGSEEFALGLIAGGLVDGNIDLWNPLSLIGSQPSENALVGHLSVHKGPVRGLEFNAISSNLLASGADDGEICIWDLLKPSEPSHFPLLKGSGSATQGEISFISWNRKVQQILASTSYNGTTVIWDLRKQKPIINFADSVRRRCSVLQWNPNVTTQIMVASDDDSSPTLKLWDMRNIMSPVREFTGHQRGVIAMEWCPSDSSYLLTCAKDNRTICWDTNTAEIVAELPAGNNWNFDVHWYPKIPGVISASSFDGKIGIYNIEGCSRYGVEENNFGTAPLKAPKWYKRPVGASFGFGGKLVSCHARAPAKGTSSILSEVFLHSLVTEQSLVSRTSEFEAAIENGDMTSLRGLCEKKSEETESEEEKETWGLLKIMFEEEGTSRTKLISHLGFTLPVAEKDQAVDGLSSDLNGIRLEDTAADALDLDDSNEAAAFAMDNGEDFFNNFPAKPDTPVSTSAKDFMPSDTDFSTKGEETQEMQEEEEESSDPVFDNAIQRALIVGDYKEAVDQCITANKMADALVIAHVGGTALWESTREKYLKTSSAPYMKVVSAMVNNDLRSLIYTRSHKFWKETLALLCTFAQGEQWTTLCDALASKLMAAGNTLAAVLCYICAGNVDRTVEIWSRSLANERDGRSYAELLQDLMEKTLVLALATGNKKFSASLCKLFESYAEILASQGLLTTAMKYLKVLDSGGLSPELSILRDRISLSAEPETNTTASGNTQPQSTMPYNQEPTQAQPNVLANPYDNQYQQPYTDSYYVPQVSHPPMQQPTMFMPHQAQPAPQPSFTPAPTSNAQPSMRTTFVPSTPPALKNADQYQQPTMSSHSFTGPSNNAYPVPPGPGQYAPSGPSQLGQYPNPKMPQVVAPAAGPIGFTPMATPGVAPRSVQPASPPTQQAAAQAAPAPATPPPTVQTADTSNVPAHQKPVIATLTRLFNETSEALGGARANTTKKREIEDNSRKLGALFVKLNSGDISKNAADKLAQLCQALDNNDFSTALQIQVLLTTSEWDECNFWLATLKRMMVKARQNVR",binds
3,"UDP-glucose dehydrogenase2 (UGD2), SLCA fusion (enzyme, UniProt Q9LIA8 1-480) MVKICCIGAGYVGGPTMAVIALKCPDVEVAVVDISVPRINAWNSDTLPIYEPGLDDVVKQCRGKNLFFSTDVEKHVREADIVFVSVNTPTKTRGLGAGKAADLTYWESAARMIADVSVSDKIVVEKSTVPVKTAEAIEKILTHNSKGIKFQILSNPEFLAEGTAIKDLFNPDRVLIGGRETPEGFKAVQTLKNVYAHWVPEGQIITTNLWSAELSKLAANAFLAQRISSVNAMSALCEATGADVTQVSYAVGTDSRIGPKFLNSSVGFGGSCFQKDILNLVYICECNGLPEVAEYWKQVIKINDYQKSRFVNRVVSSMFNSVSNKKIAVLGFAFKKDTGDTRETPAIDVCKGLLEDKARLSIYDPQVTEDQIQRDLSMNKFDWDHPLHLQPMSPTTVKQVTVTWDAYEATKDAHGICIMTEWDEFKNLDFQKIFDNMQKPAFVFDGRNIMNLQKLREIGFIVYSIGKPLDDWLKDMPAVA",no binding
